Assay results: patent publication US8785477B2, “Hexahydropyrrolo[3,4-b]pyrrole derivatives, preparation methods and pharmaceutical uses thereof” (Shanghai Sun-Sail Pharmaceutical Science & Technology Co., …, priority 2010, dated 2014)
At least one compound was matched to its structure with a doubt left.

Protein sequences, listed by entry. Tags and fused reporters are not part of them.
UniProt P27487, whole entry: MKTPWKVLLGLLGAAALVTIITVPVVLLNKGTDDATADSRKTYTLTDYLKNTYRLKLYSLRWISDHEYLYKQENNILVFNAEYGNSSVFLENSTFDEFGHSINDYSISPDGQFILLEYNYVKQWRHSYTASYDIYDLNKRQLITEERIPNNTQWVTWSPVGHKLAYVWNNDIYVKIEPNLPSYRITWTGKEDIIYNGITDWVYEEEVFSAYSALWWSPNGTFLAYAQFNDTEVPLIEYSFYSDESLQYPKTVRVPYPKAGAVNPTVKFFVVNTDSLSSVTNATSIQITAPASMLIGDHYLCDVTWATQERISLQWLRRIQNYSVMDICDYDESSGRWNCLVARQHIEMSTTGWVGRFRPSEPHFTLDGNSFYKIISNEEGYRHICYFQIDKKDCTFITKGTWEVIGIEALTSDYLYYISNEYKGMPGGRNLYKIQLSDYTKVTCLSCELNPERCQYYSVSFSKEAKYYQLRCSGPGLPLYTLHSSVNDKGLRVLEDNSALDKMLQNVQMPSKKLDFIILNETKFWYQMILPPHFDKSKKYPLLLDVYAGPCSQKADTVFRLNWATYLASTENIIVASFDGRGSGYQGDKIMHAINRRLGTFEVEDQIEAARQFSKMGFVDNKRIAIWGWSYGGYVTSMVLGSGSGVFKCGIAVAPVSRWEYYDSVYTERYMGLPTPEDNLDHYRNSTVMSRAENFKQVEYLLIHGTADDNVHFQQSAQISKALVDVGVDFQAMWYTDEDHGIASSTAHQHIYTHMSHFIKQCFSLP

How the values were obtained:
FAP = assay: Selectivity panel, recombinant dipeptidase inhibition (fluorescence substrate): FAP; assay type: biochemical; conditions: ratio of IC50 values
From the text: The recombinant proteins of DPPIV, DPP8, DPP9 and FAP were expressed by using insect expression system (purchased from Shanghai Jinmai Biotechnology Co. Ltd). The activities of these […] were detected by using fluorescence substrate.

DPPIV = DPPIV (Homo sapiens (Human), UniProt P27487); assay: DPP-IV-inhibiting activity, fluorescence assay with Ala-Pro-AMC substrate; assay type: biochemical
Protocol: Determination of DPP-IV-inhibiting activity could be performed by common methods. DPP-IV was pure enzyme expressed by using baculovirus expressing system and purified. […] The reaction system was carried out in buffer of pH7.5 and the substrate was alanine-proline-7-amino-4-methylcoumarin (Ala-Pro-AMC).
DPP-IV could degradate substrate Ala-Pro-AMC to give product AMC. […] The DPP-IV activity could be determined by dynamic detecting the increasing speed of fluorescence value at 460 nm.
Thoroughly mixed test compounds, enzyme and reaction buffer, preincubated the mixture for 15 minutes at 37° C. and then primed reaction by adding substrate, successfully detecting fluorescence value at 460 nm for 5 minutes. […] All final reaction volumes were 100 μL. Each concentration of each sample consisted of parallel wells in triplate.
Firstly, calculated the increment of fluorescence intensity per unit time during the initial speed of enzyme (unit: RFU/sec) which can be used to express initial speed, then calculated activity percentage of sample in each concentration group as follows: Activity %=vsample/vDMSO*100%
Wherein, vsample represents initial speed of sample in each concentration group, vDMSO represents initial speed of DMSO group.
Logarithm concentration was plotted versus activity percentage, and then calculated fitting curve by nonlinear regression from which IC50 value was calculated.

Compound	Selective ratio FAP/DPPIV (FAP)	DPP-IV inhibiting activity, times higher than that of Sitagliptin (DPPIV) [times]	DPP-IV inhibiting activity, times higher than that of Vildagliptin (DPPIV) [times]
CC(C)(F)C(=O)N1C[C@@H]2CCN(C(=O)C[C@H](N)Cc3cc(F)c(F)cc3F)[C@@H]2C1 [Compound 8, (R)-3-amino-1-((3aS,6aS)-5-(2-fluoro-2-methylpropionyl)-hexahydropyrrolo[3,4-b]pyrrol-1(2H)-yl)-4-(2,4,5-trifluorophenyl)butan-1-onefumarate]	1224		
CS(=O)(=O)c1cccc(C(=O)N2C[C@@H]3CCN(C(=O)C[C@H](N)Cc4cc(F)c(F)cc4F)[C@@H]3C2)c1.O=C(O)/C=C/C(=O)O [Compound 26, (R)-3-amino-1-((3aS,6aS)-5-(3-mesylbenzoyl)-hexahydropyrrolo[3,4-b]pyrrol-1(2H)-yl)-4-(2,4,5-trifluorophenyl)butan-1-one fumarate]	4361	8	30
